Values from PubChem BioAssay AID652259 (Drosophila RNAi Screening Center, 2013)
The deposit covers about 22,000 reagents; this is an unselected part of those with a known target gene and a result. Over the whole deposit, 233 (1.1%) got an active call. 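Light values are raw, unnormalised plate reads; the ratio scores behind the reporter calls were not deposited.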 Names joined by + are all predicted targets of the reagent. Reagent sequences are not shown. Not stated in the record: the amount of reagent, the time to read-out, the dose of the treatment.

- Screen: 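Knock-downs that push a Wingless-driven reporter up or down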 (primary screen)
- System: Drosophila clone 8 imaginal disc epithelial cells
- Knock-down reagent: long dsRNA against Drosophila genes
- Conditions: pathway stimulated by co-transfected Wingless expression plasmid
- Measured: 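Firefly luciferase from a tcf-site Wingless reporter, measured alongside co-transfected Renilla luciferase that tracks transfection; pathway stimulated by a Wingless plasmid; the firefly-to-Renilla ratio is not deposited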
- Reading the numbers: firefly reporter light: higher = more Wg reporter light, before normalisation; Renilla control light: higher = more transfected or surviving cells
- Rule for the call: 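a knock-down is a candidate when at least two out of four statistical tests show it departing from its plate mean; one test alone signals a weak candidate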
- Calls: active = candidate regulator (raises or lowers reporter); inactive = not a candidate

target gene | dsRNA | reporter change call, replicate 1 | firefly reporter light, replicate 1 | firefly reporter light, replicate 2 | Renilla control light, replicate 1 | Renilla control light, replicate 2 | outcome
CycA (Cyclin A) | DRSC09132 | – | 1661 | – | 1255 | – | inactive
CycA (Cyclin A) | DRSC11123 | – | 2944 | – | 2533 | – | inactive
Spn55B (Serpin 55B) | DRSC07694 | – | 8833 | – | 2954 | – | inactive
Spn55B (Serpin 55B) | DRSC21862 | – | 3.74e5 | 3.95e5 | 1.35e5 | 1.37e5 | inactive
S (Star) | DRSC00785 | – | 2530 | 5057 | 811 | 1388 | inactive
CG5555 | DRSC15834 | – | 1756 | 6230 | 520 | 2630 | inactive
CG15517 | DRSC15056 | – | 7872 | – | 3075 | – | inactive
Hr39 (Hormone receptor-like in 39) | DRSC03346 | – | 6308 | – | 1783 | – | inactive
yps (ypsilon schachtel) | DRSC11411 | – | 13757 | – | 3037 | – | inactive
CG7966 | DRSC16356 | – | 7768 | – | 2613 | – | inactive
CG4593 | DRSC18374 | – | 21853 | – | 8957 | – | inactive
Sema1b (Semaphorin 1b) | DRSC07550 | – | 19920 | – | 6263 | – | inactive
CG42304 + Snup | DRSC08276 | – | 20858 | – | 8912 | – | inactive
CG42304 + Snup | DRSC08277 | – | 4627 | – | 1158 | – | inactive
CG42304 + Snup | DRSC22781 | – | 7.30e5 | 6.51e5 | 1.73e5 | 296 | inactive
Cyp9c1 (Cytochrome P450 9c1) | DRSC04607 | – | 8928 | – | 3638 | – | inactive
Rab14 | DRSC03403 | – | 6496 | – | 1856 | – | inactive
CG2931 | DRSC12324 | – | 13008 | – | 3936 | – | inactive
CG31321 | DRSC13028 | – | 3264 | – | 1122 | – | inactive
Naa80 (N(alpha)-acetyltransferase 80) | DRSC16429 | – | 19611 | – | 3100 | – | inactive
snRNP-U1-C (small ribonucleoprotein particle U1 subunit C) | DRSC15804 | – | 23829 | – | 3483 | – | inactive
blot (bloated tubules) | DRSC09485 | – | 3201 | – | 1273 | – | inactive
blot (bloated tubules) | DRSC11328 | – | 5958 | – | 2177 | – | inactive
mts (microtubule star) | DRSC03574 | – | 13904 | – | 2712 | – | inactive
MED14 (Mediator complex subunit 14) | DRSC08235 | – | 9360 | – | 1960 | – | inactive
Pex7 (Peroxin 7) | DRSC10651 | – | 1064 | 4694 | 972 | 2061 | inactive
CG9222 | DRSC03158 | – | 2560 | 5145 | 794 | 2136 | inactive
betaNACtes4 (Nascent-associated complex beta-subunit-like, testis 4) | DRSC19801 | – | 17947 | – | 8971 | – | inactive
CG7860 | DRSC20060 | – | 2112 | 5789 | 873 | 2176 | inactive
CG32281 | DRSC08236 | – | 4199 | – | 2112 | – | inactive
CG9649 | DRSC16534 | – | 8945 | – | 3690 | – | inactive
CG1394 | DRSC19539 | – | 18164 | – | 5904 | – | inactive
P5CDh1 (delta-1-Pyrroline-5-carboxylate dehydrogenase 1) | DRSC11801 | – | 5165 | – | 2572 | – | inactive
CG32119 | DRSC09248 | – | 5475 | – | 2320 | – | inactive
CG32119 | DRSC21462 | – | 5.17e5 | 6.86e5 | 2.32e5 | 1.95e5 | inactive
Tbce (Tubulin-binding cofactor E) | DRSC04897 | – | 12537 | – | 3796 | – | inactive
H2.0 (Homeodomain protein 2.0) | DRSC03340 | – | 4612 | 9014 | 1953 | 4148 | inactive
H2.0 (Homeodomain protein 2.0) | DRSC22555 | – | 6.06e5 | 6.78e5 | 2.80e5 | 2.53e5 | inactive
mop (myopic) | DRSC11065 | – | 3048 | – | 1184 | – | inactive
DZIP1 | DRSC14620 | – | 18992 | – | 18210 | – | inactive
RpL23A (Ribosomal protein L23A) | DRSC08694 | – | 17962 | – | 3750 | – | inactive
RpL23A (Ribosomal protein L23A) | DRSC22035 | – | 7.80e5 | 8.16e5 | 3.02e5 | 2.99e5 | inactive
CG4576 | DRSC15604 | – | 16170 | – | 3040 | – | inactive
CG3430 | DRSC02713 | Wg reporter activity lowered | 6967 | – | 3367 | – | inactive
CG6790 | DRSC16117 | – | 5501 | – | 2984 | – | inactive
IntS9 (Integrator 9) | DRSC10493 | – | 6067 | – | 1846 | – | inactive
Or92a (Odorant receptor 92a) | DRSC16771 | – | 11890 | – | 2497 | – | inactive
CG3841 | DRSC02730 | – | 2534 | 5117 | 1173 | 3322 | inactive
CG13622 | DRSC14624 | – | 12849 | – | 10724 | – | inactive
CG13928 | DRSC08397 | – | 4749 | – | 1584 | – | inactive
Pax (Paxillin) | DRSC01703 | – | 20880 | – | 10792 | – | inactive
Pax (Paxillin) | DRSC02651 | – | 18793 | – | 6621 | – | inactive
Pax (Paxillin) | DRSC02652 | – | 3986 | 7958 | 1237 | 2913 | inactive
CG17329 | DRSC01926 | – | 2665 | 5706 | 866 | 2536 | inactive
CG8289 | DRSC20101 | – | 2684 | 7059 | 753 | 2578 | inactive
Cdc50 (Cell division cycle 50) | DRSC20224 | – | 15024 | – | 7234 | – | inactive
CG34423 + Mthfs | DRSC04088 | – | 4768 | 7040 | 648 | 2281 | inactive
CG14711 + Zaf1 | DRSC14934 | – | 19648 | – | 4695 | – | inactive
CG17672 | DRSC09230 | – | 2281 | – | 361 | – | inactive
CG17672 | DRSC10278 | – | 10007 | – | 3340 | – | inactive
CG3191 | DRSC18530 | – | 3776 | 8275 | 1529 | 3450 | inactive
COX7A (Cytochrome c oxidase subunit 7A) | DRSC16514 | – | 12043 | – | 2949 | – | inactive
mtrm (matrimony) | DRSC10322 | – | 3051 | – | 820 | – | inactive
CG15225 | DRSC04232 | – | 3430 | 13197 | 1062 | 3347 | inactive
Cpr73D (Cuticular protein 73D) | DRSC11084 | – | 5136 | – | 1959 | – | inactive
Prosbeta2R1 (Proteasome beta2 subunit-related 1) | DRSC18154 | – | 17984 | – | 10539 | – | inactive
PolZ2 (DNA polymerase zeta subunit 2) | DRSC12325 | – | 11092 | – | 2355 | – | inactive
CG10486 | DRSC09735 | – | 1456 | 4241 | 1205 | 3312 | inactive
eIF3i (eukaryotic translation initiation factor 3 subunit i) | DRSC03464 | – | 9267 | – | 3284 | – | inactive
CG15571 | DRSC18059 | – | 20400 | – | 10273 | – | inactive
CG13793 | DRSC02297 | – | 3271 | 7053 | 1240 | 3033 | inactive
CG30447 | DRSC05820 | – | 19314 | – | 9400 | – | inactive
CG11672 | DRSC14344 | – | 13362 | – | 3761 | – | inactive
